# Assay results published in the supplement of paper PMC12067093, “Discovery and optimisation of a covalent ligand for TRIM25 and its application to targeted protein ubiquitination” (Chemical Science, 2025).
# Chains of the proteins cited; added tags and fusions are not shown. Lines headed by an entry give the natural chain unless they say otherwise; changes in a name come on top.
# UniProt P22234: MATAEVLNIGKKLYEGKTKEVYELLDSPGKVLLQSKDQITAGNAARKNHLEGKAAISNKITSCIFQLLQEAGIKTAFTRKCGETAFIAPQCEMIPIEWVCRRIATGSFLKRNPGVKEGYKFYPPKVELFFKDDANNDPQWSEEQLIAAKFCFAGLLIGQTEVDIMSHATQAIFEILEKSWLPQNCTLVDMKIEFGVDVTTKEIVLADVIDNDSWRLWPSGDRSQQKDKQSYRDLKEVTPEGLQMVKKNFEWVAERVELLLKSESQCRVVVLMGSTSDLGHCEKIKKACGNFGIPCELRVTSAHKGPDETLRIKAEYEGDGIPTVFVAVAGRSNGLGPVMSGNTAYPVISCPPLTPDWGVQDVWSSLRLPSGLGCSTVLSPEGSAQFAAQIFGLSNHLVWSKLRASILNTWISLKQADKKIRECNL
# UniProt O43252: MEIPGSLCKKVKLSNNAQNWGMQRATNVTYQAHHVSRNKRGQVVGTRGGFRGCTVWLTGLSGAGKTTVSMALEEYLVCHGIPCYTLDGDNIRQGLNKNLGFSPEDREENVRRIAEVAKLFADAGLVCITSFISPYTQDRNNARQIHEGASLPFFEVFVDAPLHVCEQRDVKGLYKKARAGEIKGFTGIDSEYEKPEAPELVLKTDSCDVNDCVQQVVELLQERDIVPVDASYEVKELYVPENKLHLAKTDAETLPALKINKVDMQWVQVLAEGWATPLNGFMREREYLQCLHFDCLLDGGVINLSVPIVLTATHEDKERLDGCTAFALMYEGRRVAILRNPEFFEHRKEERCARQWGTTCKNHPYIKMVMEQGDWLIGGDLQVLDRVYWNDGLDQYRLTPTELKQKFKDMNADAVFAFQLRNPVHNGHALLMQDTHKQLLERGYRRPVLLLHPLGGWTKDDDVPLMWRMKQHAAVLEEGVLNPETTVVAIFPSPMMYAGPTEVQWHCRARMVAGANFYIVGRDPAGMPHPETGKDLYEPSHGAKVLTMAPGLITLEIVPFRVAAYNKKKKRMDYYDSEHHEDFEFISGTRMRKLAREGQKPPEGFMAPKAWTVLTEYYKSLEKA
# UniProt Q92882: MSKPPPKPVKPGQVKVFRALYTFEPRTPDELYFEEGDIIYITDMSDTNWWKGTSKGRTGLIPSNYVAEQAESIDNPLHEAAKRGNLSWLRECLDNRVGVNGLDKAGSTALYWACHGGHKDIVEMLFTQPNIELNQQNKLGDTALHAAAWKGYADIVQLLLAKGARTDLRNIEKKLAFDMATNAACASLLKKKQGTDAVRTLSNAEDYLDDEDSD
# UniProt Q96FW1, whole entry, looked up: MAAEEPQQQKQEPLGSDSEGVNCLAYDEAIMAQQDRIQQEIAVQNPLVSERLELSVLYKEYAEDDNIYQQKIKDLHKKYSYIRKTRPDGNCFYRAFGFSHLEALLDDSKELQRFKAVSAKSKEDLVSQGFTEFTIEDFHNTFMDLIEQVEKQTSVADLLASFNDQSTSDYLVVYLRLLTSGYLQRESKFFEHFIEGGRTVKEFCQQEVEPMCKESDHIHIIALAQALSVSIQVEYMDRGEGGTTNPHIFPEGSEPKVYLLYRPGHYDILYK
# UniProt Q9UQ80: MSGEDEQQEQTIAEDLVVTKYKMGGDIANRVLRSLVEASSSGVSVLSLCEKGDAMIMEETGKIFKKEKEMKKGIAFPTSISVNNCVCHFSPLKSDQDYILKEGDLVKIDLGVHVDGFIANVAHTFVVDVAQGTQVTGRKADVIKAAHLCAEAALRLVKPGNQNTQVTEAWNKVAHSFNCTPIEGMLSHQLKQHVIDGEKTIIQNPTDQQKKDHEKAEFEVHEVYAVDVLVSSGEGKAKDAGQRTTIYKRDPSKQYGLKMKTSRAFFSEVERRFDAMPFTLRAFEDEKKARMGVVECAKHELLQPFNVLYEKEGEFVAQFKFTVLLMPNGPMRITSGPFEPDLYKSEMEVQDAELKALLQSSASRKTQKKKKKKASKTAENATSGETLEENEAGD
# UniProt Q9UKK3: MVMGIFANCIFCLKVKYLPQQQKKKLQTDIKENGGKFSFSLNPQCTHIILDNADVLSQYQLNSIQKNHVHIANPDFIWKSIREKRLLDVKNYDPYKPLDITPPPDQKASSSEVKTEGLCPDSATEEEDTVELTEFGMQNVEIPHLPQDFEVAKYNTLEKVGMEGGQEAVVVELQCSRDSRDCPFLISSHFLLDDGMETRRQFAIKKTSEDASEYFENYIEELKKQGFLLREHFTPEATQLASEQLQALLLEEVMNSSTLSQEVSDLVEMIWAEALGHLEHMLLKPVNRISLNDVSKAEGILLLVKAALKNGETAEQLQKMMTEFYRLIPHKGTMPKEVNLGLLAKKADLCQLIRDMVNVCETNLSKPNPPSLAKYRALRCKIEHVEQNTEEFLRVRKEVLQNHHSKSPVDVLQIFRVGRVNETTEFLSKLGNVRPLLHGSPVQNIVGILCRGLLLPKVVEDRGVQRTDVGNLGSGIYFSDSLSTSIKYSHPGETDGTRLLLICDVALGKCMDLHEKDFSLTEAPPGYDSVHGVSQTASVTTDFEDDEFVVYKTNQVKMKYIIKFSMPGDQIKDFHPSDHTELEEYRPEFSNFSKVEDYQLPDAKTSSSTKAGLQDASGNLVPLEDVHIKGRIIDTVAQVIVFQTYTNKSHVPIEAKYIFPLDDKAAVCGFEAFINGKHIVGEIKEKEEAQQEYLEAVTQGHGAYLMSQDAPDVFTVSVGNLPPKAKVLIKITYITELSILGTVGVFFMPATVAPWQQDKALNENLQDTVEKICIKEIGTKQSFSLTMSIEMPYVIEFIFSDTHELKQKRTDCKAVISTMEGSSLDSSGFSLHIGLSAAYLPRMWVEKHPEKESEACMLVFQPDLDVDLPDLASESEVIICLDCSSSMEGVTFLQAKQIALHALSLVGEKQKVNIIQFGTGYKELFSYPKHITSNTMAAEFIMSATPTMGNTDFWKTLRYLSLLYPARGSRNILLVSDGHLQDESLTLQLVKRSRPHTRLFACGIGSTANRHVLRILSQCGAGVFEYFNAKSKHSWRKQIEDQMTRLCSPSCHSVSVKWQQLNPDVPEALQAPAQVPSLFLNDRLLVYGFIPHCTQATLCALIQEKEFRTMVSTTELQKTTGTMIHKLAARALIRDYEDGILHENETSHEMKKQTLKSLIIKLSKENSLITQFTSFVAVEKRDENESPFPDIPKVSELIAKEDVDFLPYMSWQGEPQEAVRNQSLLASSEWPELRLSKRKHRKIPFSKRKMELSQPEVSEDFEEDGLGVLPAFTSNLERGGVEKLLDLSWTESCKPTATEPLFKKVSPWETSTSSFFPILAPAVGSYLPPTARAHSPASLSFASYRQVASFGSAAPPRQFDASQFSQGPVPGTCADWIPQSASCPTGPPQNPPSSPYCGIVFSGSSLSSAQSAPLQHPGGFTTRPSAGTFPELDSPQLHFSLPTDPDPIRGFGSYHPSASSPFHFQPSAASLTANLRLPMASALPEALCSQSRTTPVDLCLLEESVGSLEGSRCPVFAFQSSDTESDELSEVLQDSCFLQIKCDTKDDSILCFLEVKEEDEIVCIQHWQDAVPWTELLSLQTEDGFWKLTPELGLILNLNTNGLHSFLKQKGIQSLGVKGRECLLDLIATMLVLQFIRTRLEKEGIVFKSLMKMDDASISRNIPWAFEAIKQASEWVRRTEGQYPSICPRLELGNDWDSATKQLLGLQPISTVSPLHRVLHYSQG
# UniProt Q9H0J9: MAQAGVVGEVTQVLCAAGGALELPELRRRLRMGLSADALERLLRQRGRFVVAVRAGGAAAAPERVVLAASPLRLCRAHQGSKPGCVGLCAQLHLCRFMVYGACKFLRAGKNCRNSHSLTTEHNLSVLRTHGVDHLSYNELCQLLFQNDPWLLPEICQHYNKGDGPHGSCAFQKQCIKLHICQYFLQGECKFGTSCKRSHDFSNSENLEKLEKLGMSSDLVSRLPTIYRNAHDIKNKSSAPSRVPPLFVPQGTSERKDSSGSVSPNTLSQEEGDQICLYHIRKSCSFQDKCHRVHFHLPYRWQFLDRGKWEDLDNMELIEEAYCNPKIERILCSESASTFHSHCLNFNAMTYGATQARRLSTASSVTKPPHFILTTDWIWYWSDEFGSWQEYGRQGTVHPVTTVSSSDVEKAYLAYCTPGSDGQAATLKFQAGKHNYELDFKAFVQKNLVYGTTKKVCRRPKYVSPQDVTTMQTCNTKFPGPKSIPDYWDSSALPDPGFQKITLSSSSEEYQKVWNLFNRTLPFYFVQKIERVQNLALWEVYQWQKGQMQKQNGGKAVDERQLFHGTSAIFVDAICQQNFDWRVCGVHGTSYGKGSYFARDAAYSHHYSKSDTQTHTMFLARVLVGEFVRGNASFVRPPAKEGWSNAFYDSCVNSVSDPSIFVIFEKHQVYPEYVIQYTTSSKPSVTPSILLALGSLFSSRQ
# UniProt P51003: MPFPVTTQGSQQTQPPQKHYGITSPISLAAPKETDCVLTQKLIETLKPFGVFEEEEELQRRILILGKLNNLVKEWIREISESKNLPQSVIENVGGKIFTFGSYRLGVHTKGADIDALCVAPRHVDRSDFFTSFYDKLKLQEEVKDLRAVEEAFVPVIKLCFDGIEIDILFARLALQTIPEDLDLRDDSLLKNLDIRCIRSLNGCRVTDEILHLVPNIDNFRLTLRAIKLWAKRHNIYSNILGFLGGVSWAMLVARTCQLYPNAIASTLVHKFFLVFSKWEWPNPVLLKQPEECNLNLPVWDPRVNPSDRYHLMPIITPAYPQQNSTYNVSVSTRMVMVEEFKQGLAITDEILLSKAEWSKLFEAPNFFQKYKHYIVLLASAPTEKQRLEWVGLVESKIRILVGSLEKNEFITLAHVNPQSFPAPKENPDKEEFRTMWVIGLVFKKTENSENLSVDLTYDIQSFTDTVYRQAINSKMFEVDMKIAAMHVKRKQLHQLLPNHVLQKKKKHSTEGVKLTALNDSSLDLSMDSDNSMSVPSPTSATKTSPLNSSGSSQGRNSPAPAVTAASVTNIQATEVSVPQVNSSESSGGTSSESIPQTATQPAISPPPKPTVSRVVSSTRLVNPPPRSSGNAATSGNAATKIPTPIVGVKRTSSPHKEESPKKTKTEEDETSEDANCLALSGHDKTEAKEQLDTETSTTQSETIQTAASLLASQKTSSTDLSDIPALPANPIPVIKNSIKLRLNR
# UniProt Q96CV9, whole entry, looked up: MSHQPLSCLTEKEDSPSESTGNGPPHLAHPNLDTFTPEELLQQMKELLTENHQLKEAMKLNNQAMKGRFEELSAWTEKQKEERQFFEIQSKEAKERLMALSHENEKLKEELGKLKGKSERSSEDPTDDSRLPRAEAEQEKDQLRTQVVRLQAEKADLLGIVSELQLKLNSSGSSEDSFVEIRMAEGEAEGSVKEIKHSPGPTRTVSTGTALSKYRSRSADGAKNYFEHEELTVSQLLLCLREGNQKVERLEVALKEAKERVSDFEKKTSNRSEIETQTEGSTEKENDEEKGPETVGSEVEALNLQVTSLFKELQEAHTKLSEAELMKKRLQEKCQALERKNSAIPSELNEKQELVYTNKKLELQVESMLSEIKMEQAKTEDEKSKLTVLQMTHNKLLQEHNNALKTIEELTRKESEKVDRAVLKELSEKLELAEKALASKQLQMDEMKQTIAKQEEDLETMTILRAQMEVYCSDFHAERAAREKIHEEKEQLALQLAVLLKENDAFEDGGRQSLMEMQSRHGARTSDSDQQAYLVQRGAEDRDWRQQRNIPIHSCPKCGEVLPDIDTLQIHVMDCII
# UniProt Q32P28: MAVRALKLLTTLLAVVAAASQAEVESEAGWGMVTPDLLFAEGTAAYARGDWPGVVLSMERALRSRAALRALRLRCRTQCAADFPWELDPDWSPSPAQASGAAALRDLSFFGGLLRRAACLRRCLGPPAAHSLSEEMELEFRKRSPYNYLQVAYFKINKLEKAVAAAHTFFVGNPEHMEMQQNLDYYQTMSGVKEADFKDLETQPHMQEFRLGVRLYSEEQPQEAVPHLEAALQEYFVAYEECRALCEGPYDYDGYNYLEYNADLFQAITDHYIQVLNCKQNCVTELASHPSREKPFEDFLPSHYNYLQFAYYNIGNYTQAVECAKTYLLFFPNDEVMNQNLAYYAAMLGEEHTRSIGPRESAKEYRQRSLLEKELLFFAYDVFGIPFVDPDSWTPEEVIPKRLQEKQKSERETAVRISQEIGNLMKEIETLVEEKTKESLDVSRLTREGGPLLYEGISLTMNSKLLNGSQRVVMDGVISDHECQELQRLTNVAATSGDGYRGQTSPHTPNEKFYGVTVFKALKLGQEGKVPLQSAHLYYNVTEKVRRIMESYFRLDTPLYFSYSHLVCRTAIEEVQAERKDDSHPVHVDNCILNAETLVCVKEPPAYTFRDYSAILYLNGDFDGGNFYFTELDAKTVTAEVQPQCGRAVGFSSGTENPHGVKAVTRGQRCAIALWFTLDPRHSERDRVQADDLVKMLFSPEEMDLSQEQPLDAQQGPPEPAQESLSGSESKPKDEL
# Some of the results follow.
# Compound: Cc1cc(ccc1-c1ccccc1)C(=O)N1CCCN(CC1)C(=O)CCl [compound 10]
# Test: probe-labelled cysteine peptide fold change vs DMSO (competition) (log2 fold change); higher = less target engagement (more negative = stronger competition)
# Conditions: THP-1, incubation time: 4 h
# 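Note: competitive profiling in live THP-1 cells: cysteine peptides tagged with an iodoacetamide desthiobiotin (IA-DTB) probe, intensity after compound treatment relative to DMSO-treated cells.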
Target,probe-labelled cysteine peptide fold change (10 µM),probe-labelled cysteine peptide fold change (50 µM)
PAICS_P22234_81+91+100_CGETAFIAPQCEMIPIEWVCR (UniProt P22234),0.177,-0.182
OPLAH_O14841_408_LLPASFPCIFGPGENQPLSPEASRK (UniProt O14841),-0.098,0.0583
PAPSS1_O43252_127_LFADAGLVCITSFISPYTQDR (UniProt O43252),0.171,0.448
OPLAH_O14841_25_GGTFTDVFAQCPGGHVR (UniProt O14841),0.212,0.0599
ORC3_Q9UBD5_141_DCPDMK (UniProt Q9UBD5),0.00493,-0.0638
OSBPL1A_Q9BXW6_303_CFDDTIHGFR (UniProt Q9BXW6),-0.154,0.0612
OSBPL8_Q9BZF1_617_LKPFLGSSDCVNQISGK (UniProt Q9BZF1),-0.136,-0.0865
OSTF1_Q92882_114_AGSTALYWACHGGHK (UniProt Q92882),0.145,0.00992
OTUB1_Q96FW1_91_TRPDGNCFYR (UniProt Q96FW1),0.043,-0.194
PARP1_P09874_298_VADGMVFGALLPCEECSGQLVFK (UniProt P09874),-0.0775,-0.0125
PAPSS1_O43252_212_TDSCDVNDCVQQVVELLQER (UniProt O43252),0.218,0.0226
PAF1_Q8N7H5_218_MWINPCAQVIFDSDPAPK (UniProt Q8N7H5),-0.0419,-0.037
OSBPL3_Q9H4L5_718_NLHDDSCYCK (UniProt Q9H4L5),0.144,0.299
PAN2_Q504Q3_263_LTGLACDR (UniProt Q504Q3),0.0943,0.121
P4HB_P07237_343_ITEFCHR (UniProt P07237),-0.0121,-0.0675
PA2G4_Q9UQ80_49_SLVEASSSGVSVLSLCEK (UniProt Q9UQ80),-0.0834,-0.246
PARP1_P09874_256_VCSTNDLK (UniProt P09874),0.122,0.184
PADI2_Q9Y2J8_612_PFGPQVEEECCLEMHVR (UniProt Q9Y2J8),-0.0223,0.222
PAICS_P22234_91_KCGETAFIAPQCEMIPIEWVCR (UniProt P22234),0.107,-0.0751
ORC5_O43913_10_PHLENVVLCR (UniProt O43913),-0.0685,0.186
PAN2_Q504Q3_798_ELGSPEGVLVCPSIEELK (UniProt Q504Q3),-0.459,-0.933
PARP4_Q9UKK3_182_DCPFLISSHFLLDDGMETR (UniProt Q9UKK3),0.281,-0.197
ORC4_O43929_421_YPNCPTDVR (UniProt O43929),-0.16,0.00602

# Whole records as entered above:
# P4HB_P07237_343_ITEFCHR (UniProt P07237) is listed with probe-labelled cysteine peptide fold change (10 µM): -0.0121; probe-labelled cysteine peptide fold change (50 µM): -0.0675
# PAPSS1_O43252_127_LFADAGLVCITSFISPYTQDR (UniProt O43252) is listed with probe-labelled cysteine peptide fold change (10 µM): 0.171; probe-labelled cysteine peptide fold change (50 µM): 0.448

# Next records:

Target,probe-labelled cysteine peptide fold change (10 µM),probe-labelled cysteine peptide fold change (50 µM)
OSGEPL1_Q9H4B0_249_NCDFSFTGLQHVTDK (UniProt Q9H4B0),-0.0534,-0.189
P2RX4_Q99571_227_TDPFCPIFR (UniProt Q99571),-0.235,0.0728
OPLAH_O14841_1053_DIPLNQGCLAPVR (UniProt O14841),-0.0456,0.0979
PARP12_Q9H0J9_276_DSSGSVSPNTLSQEEGDQICLYHIR (UniProt Q9H0J9),-0.172,-0.673
PAPOLA_P51003_677_TEEDETSEDANCLALSGHDK (UniProt P51003),-0.0202,0.04
OR4D11_Q8NGI4_72_LHTPMYFLLRNLAILDICFSSTTAPKVLLDLLSK (UniProt Q8NGI4),-0.0338,-0.346
PANK4_Q9NVE7_699_LLLVQTGSSSPCLDLSR (UniProt Q9NVE7),-0.0499,-0.043
PARP12_Q9H0J9_195_FGTSCK (UniProt Q9H0J9),-0.0288,-0.0533
PAFAH1B2_P68402_188_LANVQLLDTDGGFVHSDGAISCHDMFDFLHLTGGGYAK (UniProt P68402),-0.027,-0.363
PARP1_P09874_845_NTHATTHNAYDLEVIDIFKIEREGECQR (UniProt P09874),-0.189,-0.814
PARP10_Q53GL7_983+1004_YDSAVDCICQPSIFVIFHDTQALPTHLITCEHVPR (UniProt Q53GL7),0.00978,-0.372
PAPOLA_P51003_36_ETDCVLTQK (UniProt P51003),-0.218,-0.517
PAICS_P22234_281_VVVLMGSTSDLGHCEK (UniProt P22234),-0.00564,-0.126
PARP1_P09874_56_VPHWYHFSCFWK (UniProt P09874),-0.208,0.093
PA2G4_Q9UQ80_179_VAHSFNCTPIEGMLSHQLK (UniProt Q9UQ80),-0.0769,-0.138
OPTN_Q96CV9_8_SHQPLSCLTEK (UniProt Q96CV9),-0.463,-0.371
OSBPL9_Q96SU4_577_SILTVPWVELGGECNINCSK (UniProt Q96SU4),0.18,0.231
OSBPL1A_Q9BXW6_412_ETCVALTDCLNLFTK (UniProt Q9BXW6),0.181,0.0122
PABPC4_Q13310-3_488_VGSECPDR (UniProt Q13310),-0.351,-0.512
PAICS_P22234_81_KCGETAFIAPQCEMIPIEWVCR (UniProt P22234),0.0114,-0.169
PABPN1_Q86U42_195_SIYVGNVDYGATAEELEAHFHGCGSVNR (UniProt Q86U42),0.203,0.112
PARP4_Q9UKK3_12_VMGIFANCIFCLK (UniProt Q9UKK3),0.166,0.0255
PARP4_Q9UKK3_1293_LLDLSWTESCKPTATEPLFK (UniProt Q9UKK3),-0.105,-0.108

Target,probe-labelled cysteine peptide fold change (10 µM),probe-labelled cysteine peptide fold change (50 µM)
OPHN1_O60890_24_CYEQELER (UniProt O60890),0.0551,0.338
PAICS_P22234_63_ITSCIFQLLQEAGIK (UniProt P22234),0.0644,-0.0116
P4HA1_P13674_503_HAACPVLVGNK (UniProt P13674),0.21,0.116
P3H1_Q32P28_568_LDTPLYFSYSHLVCR (UniProt Q32P28),-0.35,0.386
PAPOLG_Q9BWT3_604_TVSPPTVCTIPTVVGR (UniProt Q9BWT3),-0.2,-0.352
OPA1_O60313_801_CNEEHPAYLASDEITTVRK (UniProt O60313),-0.146,-0.399
OSBPL1A_Q9BXW6_289_HLTQAVCTVK (UniProt Q9BXW6),0.0171,0.0205
PARP14_Q460N5_208_FVDDCTK (UniProt Q460N5),-0.214,-0.245
P4HB_P07237_397_KNVFVEFYAPWCGHCK (UniProt P07237),-0.644,-2.76
OSBPL1A_Q9BXW6_739+746_CVLNFKPCGLFGK (UniProt Q9BXW6),-0.0515,-0.377
OPTN_Q96CV9_239_NYFEHEELTVSQLLLCLR (UniProt Q96CV9),-0.0877,-0.674
OTUD6B_Q8N6M0_172_DCALTVVALR (UniProt Q8N6M0),-0.00399,-0.222
PAPSS1_O43252_165_QIHEGASLPFFEVFVDAPLHVCEQR (UniProt O43252),0.21,0.147
PAPOLA_P51003_293_QPEECNLNLPVWDPR (UniProt P51003),-0.15,0.328
OTUB1_Q96FW1_23_QEPLGSDSEGVNCLAYDEAIMAQQDR (UniProt Q96FW1),-0.497,-0.168
PAIP1_Q9H074_358_GKMDMEEIIQRIENVVLDANCSR (UniProt Q9H074),-0.00534,-0.488
P3H1_Q32P28_591_DDSHPVHVDNCILNAETLVCVK (UniProt Q32P28),0.107,-0.154
OSBP_P22059_224_VEDLSTCNDLIAK (UniProt P22059),-0.0373,0.0508
PARP10_Q53GL7_898_RPVEQVLYHGTTAPAVPDICAHGFNR (UniProt Q53GL7),0.225,0.209
PAFAH1B1_P43034_168_LLASCSADMTIK (UniProt P43034),-0.0343,0.213
PA2G4_Q9UQ80_296_MGVVECAK (UniProt Q9UQ80),-0.0573,-0.174
OSTF1_Q92882_185_KLAFDMATNAACASLLK (UniProt Q92882),-0.0197,-0.415
